Record: PubChem BioAssay AID1259405 (NCATS, 2018)
In all, the deposit lists about 50,000 reagents; below is a random part of them. Of all reagents, about 4,000 (8%) were called active. 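Mouse siRNA library applied to hamster cells; one well for each siRNA.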 The numbers tell different reagents against one gene apart. Reagent sequences are not shown.

Test: 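Mouse-designed siRNAs used to find CHO productivity engineering targets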 (primary screen)
System: Chinese hamster CHO-K1 ovary cells with stable secreted eGFP expression
Knock-down reagent: single siRNA against mouse genes, 0.8 pmol siRNA per well (2 µl of 400 nM stock)
Time to read-out: 3 days
Measurement: 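Per-well intracellular GFP measured by laser scanning cytometry, plus viability from ATP luminescence, each relative to plate median of non-targeting control wells, in %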
Direction: GFP, % of control: higher = more GFP per well, higher productivity; viability (ATP), % of control: higher = more viable cells (more ATP)
Hit rule: 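a knock-down is called active if GFP reaches 120% or more of non-targeting control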

Which result is listed for Tomm34 (translocase of outer mitochondrial membrane 34) #1?
GFP, % of control: 92.7; viability (ATP), % of control: 117; call: inactive

With Tomm34 (translocase of outer mitochondrial membrane 34) #2, what does the deposit list?
GFP, % of control: 82.4; viability (ATP), % of control: 70.2; call: inactive

How did the screen score B3gnt2 #1?
GFP, % of control: 130; viability (ATP), % of control: 83.6; call: active

For B3gnt2 #2, what does the deposit list?
GFP, % of control: 53.3; viability (ATP), % of control: 73.8; call: inactive

What is on record for B3gnt2 #3?
GFP, % of control: 54.6; viability (ATP), % of control: 55.3; call: inactive

For Nhlrc3 (NHL repeat containing 3) #1, what was measured?
GFP, % of control: 117; viability (ATP), % of control: 83.7; call: inactive

With Nhlrc3 (NHL repeat containing 3) #2, how do the results read?
GFP, % of control: 70.2; viability (ATP), % of control: 78.5; call: inactive

For Nhlrc3 (NHL repeat containing 3) #3, what was measured?
GFP, % of control: 107; viability (ATP), % of control: 94.1; call: inactive

With Ldhc (lactate dehydrogenase C) #1, what was measured?
GFP, % of control: 76.2; viability (ATP), % of control: 90.2; call: inactive

How did the screen score Ldhc (lactate dehydrogenase C) #2?
GFP, % of control: 111; viability (ATP), % of control: 90.7; call: inactive

For Ldhc (lactate dehydrogenase C) #3, what was measured?
GFP, % of control: 80.5; viability (ATP), % of control: 113; call: inactive

How did the screen score Krtap5-1 (keratin associated protein 5-1) #1?
GFP, % of control: 73.7; viability (ATP), % of control: 58.2; call: inactive

With Krtap5-1 (keratin associated protein 5-1) #2, what does the deposit list?
GFP, % of control: 114; viability (ATP), % of control: 101; call: inactive

With Krtap5-1 (keratin associated protein 5-1) #3, what does the deposit list?
GFP, % of control: 61; viability (ATP), % of control: 75.4; call: inactive

For Hmgn5 (high-mobility group nucleosome binding domain 5) #1, how do the results read?
GFP, % of control: 83.9; viability (ATP), % of control: 45; call: inactive

Which result is listed for Hmgn5 (high-mobility group nucleosome binding domain 5) #2?
GFP, % of control: 45.2; viability (ATP), % of control: 47.8; call: inactive

What did the screen give for Hmgn5 (high-mobility group nucleosome binding domain 5) #3?
GFP, % of control: 63.2; viability (ATP), % of control: 63; call: inactive

For Ddhd1 (DDHD domain containing 1) #1, what was measured?
GFP, % of control: 83.4; viability (ATP), % of control: 55.1; call: inactive

Which result is listed for Ddhd1 (DDHD domain containing 1) #2?
GFP, % of control: 86.1; viability (ATP), % of control: 108; call: inactive

How did the screen score Ddhd1 (DDHD domain containing 1) #3?
GFP, % of control: 56.2; viability (ATP), % of control: 71.4; call: inactive

For Gadd45g (growth arrest and DNA-damage-inducible 45 gamma) #1, what does the deposit list?
GFP, % of control: 100; viability (ATP), % of control: 98.3; call: inactive

What did the screen give for Gadd45g (growth arrest and DNA-damage-inducible 45 gamma) #2?
GFP, % of control: 76.7; viability (ATP), % of control: 60.5; call: inactive

Which result is listed for Gadd45g (growth arrest and DNA-damage-inducible 45 gamma) #3?
GFP, % of control: 113; viability (ATP), % of control: 72.2; call: inactive

With Ccdc28b (coiled coil domain containing 28B) #1, what was measured?
GFP, % of control: 75.4; viability (ATP), % of control: 80.9; call: inactive

With Ccdc28b (coiled coil domain containing 28B) #2, what does the deposit list?
GFP, % of control: 56.2; viability (ATP), % of control: 62.9; call: inactive

What did the screen give for Ccdc28b (coiled coil domain containing 28B) #3?
GFP, % of control: 85.4; viability (ATP), % of control: 92.7; call: inactive

How did the screen score Tmem191 (transmembrane protein 191) #1?
GFP, % of control: 67.7; viability (ATP), % of control: 54.5; call: inactive

For Tmem191 (transmembrane protein 191) #2, what was measured?
GFP, % of control: 68.3; viability (ATP), % of control: 66.9; call: inactive

How did the screen score Tmem191 (transmembrane protein 191) #3?
GFP, % of control: 55.8; viability (ATP), % of control: 64.4; call: inactive

For Yes1 (YES proto-oncogene 1, Src family tyrosine kinase) #1, what was measured?
GFP, % of control: 101; viability (ATP), % of control: 86.1; call: inactive

For Yes1 (YES proto-oncogene 1, Src family tyrosine kinase) #2, what was measured?
GFP, % of control: 87.6; viability (ATP), % of control: 91.8; call: inactive

Which result is listed for Yes1 (YES proto-oncogene 1, Src family tyrosine kinase) #3?
GFP, % of control: 63.9; viability (ATP), % of control: 63.2; call: inactive

Called active, among the entries above:
B3gnt2 #1 → GFP, % of control: 130; viability (ATP), % of control: 83.6; call: active

Additional results:
What did the screen give for Vmn1r73 (vomeronasal 1 receptor 73) #1?
GFP, % of control: 56.8; viability (ATP), % of control: 42.1; call: inactive

Which result is listed for Vmn1r73 (vomeronasal 1 receptor 73) #2?
GFP, % of control: 59.5; viability (ATP), % of control: 48.1; call: inactive

With Vmn1r73 (vomeronasal 1 receptor 73) #3, what was measured?
GFP, % of control: 43.7; viability (ATP), % of control: 48.5; call: inactive

With Ptprs (protein tyrosine phosphatase receptor type S) #1, how do the results read?
GFP, % of control: 76.1; viability (ATP), % of control: 70.2; call: inactive

For Ptprs (protein tyrosine phosphatase receptor type S) #2, what was measured?
GFP, % of control: 73.2; viability (ATP), % of control: 76.8; call: inactive

What is on record for Ptprs (protein tyrosine phosphatase receptor type S) #3?
GFP, % of control: 80.5; viability (ATP), % of control: 79.4; call: inactive

With Creb3l1 (cAMP responsive element binding protein 3-like 1) #1, how do the results read?
GFP, % of control: 69.7; viability (ATP), % of control: 37.7; call: inactive

What did the screen give for Creb3l1 (cAMP responsive element binding protein 3-like 1) #2?
GFP, % of control: 67.7; viability (ATP), % of control: 79.5; call: inactive

For Creb3l1 (cAMP responsive element binding protein 3-like 1) #3, what does the deposit list?
GFP, % of control: 111; viability (ATP), % of control: 104; call: inactive

What did the screen give for Gna15 (guanine nucleotide binding protein, alpha 15) #1?
GFP, % of control: 116; viability (ATP), % of control: 93.4; call: inactive

With Gna15 (guanine nucleotide binding protein, alpha 15) #2, how do the results read?
GFP, % of control: 69.2; viability (ATP), % of control: 51.4; call: inactive

What did the screen give for Gna15 (guanine nucleotide binding protein, alpha 15) #3?
GFP, % of control: 80.5; viability (ATP), % of control: 75.7; call: inactive

With Zfp644 (zinc finger protein 644) #1, what was measured?
GFP, % of control: 58.4; viability (ATP), % of control: 73.4; call: inactive

What is on record for Zfp644 (zinc finger protein 644) #2?
GFP, % of control: 59.1; viability (ATP), % of control: 82.5; call: inactive

With Zfp644 (zinc finger protein 644) #3, what does the deposit list?
GFP, % of control: 99.1; viability (ATP), % of control: 93.9; call: inactive

What did the screen give for Tbk1 (TANK-binding kinase 1) #1?
GFP, % of control: 96.3; viability (ATP), % of control: 78.8; call: inactive

With Tbk1 (TANK-binding kinase 1) #2, how do the results read?
GFP, % of control: 64.3; viability (ATP), % of control: 59.9; call: inactive

For Tbk1 (TANK-binding kinase 1) #3, what was measured?
GFP, % of control: 73.8; viability (ATP), % of control: 72.5; call: inactive

For Arl15 (ADP-ribosylation factor-like 15) #1, what was measured?
GFP, % of control: 61.9; viability (ATP), % of control: 87.7; call: inactive

What is on record for Arl15 (ADP-ribosylation factor-like 15) #2?
GFP, % of control: 57; viability (ATP), % of control: 49.9; call: inactive

Which result is listed for Arl15 (ADP-ribosylation factor-like 15) #3?
GFP, % of control: 65.2; viability (ATP), % of control: 64; call: inactive
